Experiment: general procedure: solution-phase peptide synthesis; HATU/N,N-diisopropylethylamine; EDC/HOBt/N,N-diisopropylethylamine
Conditions: trifluoroacetate; for step yield: late stage modification step

“N-{2-[2-(2-{3-[(2,5-dioxopyrrolidin-1-yl)oxy]-3-oxopropoxy}ethoxy)ethoxy]ethyl}-N-methyl-L-valyl-N-[(3R,4S,5S)-1-{(2S)-2-[(1R,2R)-3-{[(2S)-1-amino-3-(1H-indol-3-yl)-1-oxopropan-2-yl]amino}-1-methoxy-2-methyl-3-oxopropyl]pyrrolidin-1-yl}-3-methoxy-5-methyl-1-oxoheptan-4-yl]-N-methyl-L-valinamide” showed a step yield of 64%.

For “N-{4-[2-(6-aminohexanoyl)hydrazino]-4-oxobutyl}-N-methyl-L-valyl-N-[(3R,4S,5S)-1-{(2S)-2-[(1R,2R)-3-{[(2S)-1-amino-3-(1H-indol-3-yl)-1-oxopropan-2-yl]amino}-1-methoxy-2-methyl-3-oxopropyl]pyrrolidin-1-yl}-3-methoxy-5-methyl-1-oxoheptan-4-yl]”, the conjugation yield (conjugation step, over 2 stages) was 68% of theory over 2 stages.

Substance “N-{4-[(2,5-dioxopyrrolidin-1-yl)oxy]-4-oxobutyl}-N-methyl-L-valyl-N-[(3R,4S,5S)-1-{(2S)-2-[(1R,2R)-3-{[(2S,3S)-1-(benzyloxy)-1-oxo-3-phenylbutan-2-yl]amino}-1-methoxy-2-methyl-3-oxopropyl]pyrrolidin-1-yl}-3-methoxy-5-methyl-1-oxoheptan-4-yl]-N-methyl-L-valinamide” has a step yield of 56%.

“N-{6-[(2,5-dioxopyrrolidin-1-yl)oxy]-6-oxohexyl}-N-methyl-L-valyl-N-[(3R,4S,5S)-3-methoxy-1-{(2S)-2-[(1R,2R)-1-methoxy-2-methyl-3-{[(1S,2R)-1-(1,2-oxazinan-2-ylcarbonyl)-2-phenylcyclopropyl]amino}-3-oxopropyl]pyrrolidin-1-yl}-5-methyl-1-oxoheptan-4-yl]-N-methyl-L-valinamide” gave a step yield of 41%.
